Experimental data as given in the supplement of paper PMC7666118.
The list shows a part of the results.

The chains behind the UniProt entries cited, without tags or fusion partners. Where a name states a change or a piece, a line headed by the entry shows the natural chain unless it says otherwise.
UniProt P01008, whole entry: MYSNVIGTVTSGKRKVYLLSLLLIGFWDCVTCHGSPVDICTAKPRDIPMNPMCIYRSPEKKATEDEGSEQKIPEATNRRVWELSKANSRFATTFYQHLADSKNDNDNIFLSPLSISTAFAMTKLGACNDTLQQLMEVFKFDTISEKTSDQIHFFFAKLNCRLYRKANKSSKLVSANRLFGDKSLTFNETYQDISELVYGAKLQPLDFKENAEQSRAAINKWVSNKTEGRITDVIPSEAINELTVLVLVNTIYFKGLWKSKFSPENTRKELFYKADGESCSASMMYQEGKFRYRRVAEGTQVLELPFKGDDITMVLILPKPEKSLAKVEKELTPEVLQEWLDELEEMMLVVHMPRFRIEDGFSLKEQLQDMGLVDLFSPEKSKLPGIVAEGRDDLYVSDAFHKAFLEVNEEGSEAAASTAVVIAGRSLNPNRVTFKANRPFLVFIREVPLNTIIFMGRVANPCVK
UniProt P21912: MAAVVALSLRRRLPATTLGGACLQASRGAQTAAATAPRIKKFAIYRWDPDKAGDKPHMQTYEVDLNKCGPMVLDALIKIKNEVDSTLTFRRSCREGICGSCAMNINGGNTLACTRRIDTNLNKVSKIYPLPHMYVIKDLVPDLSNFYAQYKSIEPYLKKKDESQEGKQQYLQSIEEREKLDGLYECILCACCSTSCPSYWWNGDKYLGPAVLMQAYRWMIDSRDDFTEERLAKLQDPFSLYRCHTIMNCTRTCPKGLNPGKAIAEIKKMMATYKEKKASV
UniProt O75533, whole entry: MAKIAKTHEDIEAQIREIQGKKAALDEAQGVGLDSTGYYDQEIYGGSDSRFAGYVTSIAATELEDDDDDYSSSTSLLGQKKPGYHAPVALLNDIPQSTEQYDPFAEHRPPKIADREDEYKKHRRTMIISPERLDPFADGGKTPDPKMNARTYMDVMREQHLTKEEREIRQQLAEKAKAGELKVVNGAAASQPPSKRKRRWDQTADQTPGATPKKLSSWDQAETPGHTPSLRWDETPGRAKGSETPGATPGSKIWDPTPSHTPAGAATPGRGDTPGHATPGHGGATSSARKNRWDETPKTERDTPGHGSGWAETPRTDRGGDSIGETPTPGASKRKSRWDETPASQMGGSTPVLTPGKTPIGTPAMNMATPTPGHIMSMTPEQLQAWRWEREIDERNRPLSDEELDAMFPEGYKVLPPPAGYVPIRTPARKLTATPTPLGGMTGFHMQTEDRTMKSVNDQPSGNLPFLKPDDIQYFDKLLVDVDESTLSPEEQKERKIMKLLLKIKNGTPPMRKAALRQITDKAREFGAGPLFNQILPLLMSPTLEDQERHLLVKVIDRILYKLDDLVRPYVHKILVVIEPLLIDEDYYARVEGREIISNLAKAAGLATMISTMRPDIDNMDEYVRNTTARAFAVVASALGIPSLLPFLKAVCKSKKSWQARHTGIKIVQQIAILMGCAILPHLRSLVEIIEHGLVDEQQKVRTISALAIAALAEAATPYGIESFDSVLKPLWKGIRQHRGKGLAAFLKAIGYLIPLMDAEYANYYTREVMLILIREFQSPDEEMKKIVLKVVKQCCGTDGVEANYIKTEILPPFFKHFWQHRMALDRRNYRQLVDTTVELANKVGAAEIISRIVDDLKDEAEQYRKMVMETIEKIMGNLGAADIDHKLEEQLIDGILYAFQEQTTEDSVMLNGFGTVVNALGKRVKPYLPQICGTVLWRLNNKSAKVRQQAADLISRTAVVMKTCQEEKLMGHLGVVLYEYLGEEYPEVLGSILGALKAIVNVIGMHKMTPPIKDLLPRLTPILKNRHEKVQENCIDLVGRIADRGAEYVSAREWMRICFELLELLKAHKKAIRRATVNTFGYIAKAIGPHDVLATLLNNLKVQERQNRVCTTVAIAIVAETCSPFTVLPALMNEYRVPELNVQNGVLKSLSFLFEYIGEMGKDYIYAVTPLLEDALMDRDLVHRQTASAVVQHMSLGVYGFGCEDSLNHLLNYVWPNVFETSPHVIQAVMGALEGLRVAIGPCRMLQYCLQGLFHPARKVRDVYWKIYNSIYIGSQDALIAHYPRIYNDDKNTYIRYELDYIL
UniProt Q9NRA2: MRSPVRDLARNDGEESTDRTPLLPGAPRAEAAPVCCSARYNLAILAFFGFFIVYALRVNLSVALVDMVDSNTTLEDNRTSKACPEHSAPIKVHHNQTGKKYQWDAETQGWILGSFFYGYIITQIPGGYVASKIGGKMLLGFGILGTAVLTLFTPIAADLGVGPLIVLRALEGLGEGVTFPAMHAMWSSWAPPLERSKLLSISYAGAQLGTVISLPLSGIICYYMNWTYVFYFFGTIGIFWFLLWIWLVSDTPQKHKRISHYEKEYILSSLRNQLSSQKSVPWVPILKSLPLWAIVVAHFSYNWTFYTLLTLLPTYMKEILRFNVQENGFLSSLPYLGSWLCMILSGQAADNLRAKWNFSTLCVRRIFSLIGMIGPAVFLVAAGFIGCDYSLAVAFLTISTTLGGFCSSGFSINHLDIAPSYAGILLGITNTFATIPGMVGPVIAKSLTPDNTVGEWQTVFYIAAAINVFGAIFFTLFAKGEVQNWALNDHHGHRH
UniProt Q96AG3: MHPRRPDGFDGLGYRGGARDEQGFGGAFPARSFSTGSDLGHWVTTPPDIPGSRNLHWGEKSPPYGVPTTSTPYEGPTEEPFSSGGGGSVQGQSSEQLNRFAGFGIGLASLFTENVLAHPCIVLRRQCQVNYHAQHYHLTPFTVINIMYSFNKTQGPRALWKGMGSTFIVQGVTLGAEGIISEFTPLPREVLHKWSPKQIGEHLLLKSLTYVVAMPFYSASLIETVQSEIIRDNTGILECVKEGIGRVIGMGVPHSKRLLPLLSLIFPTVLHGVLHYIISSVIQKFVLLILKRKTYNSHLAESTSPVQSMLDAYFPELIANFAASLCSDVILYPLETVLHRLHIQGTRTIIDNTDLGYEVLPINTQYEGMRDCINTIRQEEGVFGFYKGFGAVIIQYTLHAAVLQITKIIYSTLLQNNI
UniProt Q12874: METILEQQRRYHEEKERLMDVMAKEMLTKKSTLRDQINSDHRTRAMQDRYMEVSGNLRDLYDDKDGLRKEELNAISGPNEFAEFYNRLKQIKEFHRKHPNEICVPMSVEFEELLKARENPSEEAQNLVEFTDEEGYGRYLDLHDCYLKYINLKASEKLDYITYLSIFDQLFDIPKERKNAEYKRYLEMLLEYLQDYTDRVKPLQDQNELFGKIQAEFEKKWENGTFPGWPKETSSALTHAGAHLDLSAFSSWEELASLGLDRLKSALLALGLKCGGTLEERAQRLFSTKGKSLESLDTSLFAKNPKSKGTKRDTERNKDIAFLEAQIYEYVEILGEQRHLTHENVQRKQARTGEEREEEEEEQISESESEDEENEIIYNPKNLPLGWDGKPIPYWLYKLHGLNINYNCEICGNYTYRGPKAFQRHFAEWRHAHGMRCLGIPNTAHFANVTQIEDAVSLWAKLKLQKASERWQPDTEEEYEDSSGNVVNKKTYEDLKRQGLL
UniProt Q0VDG4: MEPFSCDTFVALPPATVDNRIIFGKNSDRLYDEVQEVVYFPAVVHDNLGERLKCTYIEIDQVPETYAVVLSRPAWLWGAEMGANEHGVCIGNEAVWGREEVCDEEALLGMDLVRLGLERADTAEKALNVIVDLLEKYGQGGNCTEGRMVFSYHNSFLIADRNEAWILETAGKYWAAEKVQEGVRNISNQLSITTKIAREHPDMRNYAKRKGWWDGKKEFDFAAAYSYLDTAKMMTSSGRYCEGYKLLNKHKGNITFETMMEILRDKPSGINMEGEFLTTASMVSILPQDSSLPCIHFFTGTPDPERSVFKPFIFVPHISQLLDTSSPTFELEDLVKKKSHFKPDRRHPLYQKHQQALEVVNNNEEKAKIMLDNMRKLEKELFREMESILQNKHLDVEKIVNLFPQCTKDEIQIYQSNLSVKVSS
UniProt Q9HC21: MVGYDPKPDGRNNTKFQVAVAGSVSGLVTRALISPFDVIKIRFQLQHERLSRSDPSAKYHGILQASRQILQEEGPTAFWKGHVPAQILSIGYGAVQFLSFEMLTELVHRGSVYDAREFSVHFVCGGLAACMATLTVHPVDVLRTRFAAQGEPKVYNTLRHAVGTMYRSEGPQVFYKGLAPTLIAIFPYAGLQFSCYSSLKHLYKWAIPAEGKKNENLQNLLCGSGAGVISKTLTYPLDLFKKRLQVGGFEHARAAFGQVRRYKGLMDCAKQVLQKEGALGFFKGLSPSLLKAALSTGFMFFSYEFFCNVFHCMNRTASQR
UniProt P12236: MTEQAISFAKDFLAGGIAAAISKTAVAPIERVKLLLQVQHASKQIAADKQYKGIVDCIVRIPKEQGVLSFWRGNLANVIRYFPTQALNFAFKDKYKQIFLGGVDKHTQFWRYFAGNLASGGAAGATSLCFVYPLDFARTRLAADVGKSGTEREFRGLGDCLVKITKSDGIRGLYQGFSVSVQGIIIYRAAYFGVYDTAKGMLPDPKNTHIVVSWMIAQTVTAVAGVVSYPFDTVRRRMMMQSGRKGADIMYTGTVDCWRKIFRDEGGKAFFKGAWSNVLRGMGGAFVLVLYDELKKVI
UniProt Q13242, whole entry: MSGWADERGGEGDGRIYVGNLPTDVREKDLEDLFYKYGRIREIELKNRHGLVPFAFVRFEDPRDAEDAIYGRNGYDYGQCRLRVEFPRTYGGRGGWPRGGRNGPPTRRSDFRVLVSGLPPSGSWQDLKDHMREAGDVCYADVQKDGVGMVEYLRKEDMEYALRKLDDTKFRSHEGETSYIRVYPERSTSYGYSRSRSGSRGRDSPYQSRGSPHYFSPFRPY
UniProt Q15043: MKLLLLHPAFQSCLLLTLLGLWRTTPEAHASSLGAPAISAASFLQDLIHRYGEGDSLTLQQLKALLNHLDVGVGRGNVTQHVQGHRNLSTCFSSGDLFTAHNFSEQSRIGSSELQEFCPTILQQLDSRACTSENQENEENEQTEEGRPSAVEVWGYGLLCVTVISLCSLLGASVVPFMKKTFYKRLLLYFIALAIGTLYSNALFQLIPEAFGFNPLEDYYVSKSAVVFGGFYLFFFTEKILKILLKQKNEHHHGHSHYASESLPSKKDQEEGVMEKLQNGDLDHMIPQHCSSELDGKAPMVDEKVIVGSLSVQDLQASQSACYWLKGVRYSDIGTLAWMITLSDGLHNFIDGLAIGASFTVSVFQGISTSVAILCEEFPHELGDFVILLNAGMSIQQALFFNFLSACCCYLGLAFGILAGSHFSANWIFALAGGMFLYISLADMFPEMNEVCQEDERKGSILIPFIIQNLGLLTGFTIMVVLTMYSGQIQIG
UniProt O60779: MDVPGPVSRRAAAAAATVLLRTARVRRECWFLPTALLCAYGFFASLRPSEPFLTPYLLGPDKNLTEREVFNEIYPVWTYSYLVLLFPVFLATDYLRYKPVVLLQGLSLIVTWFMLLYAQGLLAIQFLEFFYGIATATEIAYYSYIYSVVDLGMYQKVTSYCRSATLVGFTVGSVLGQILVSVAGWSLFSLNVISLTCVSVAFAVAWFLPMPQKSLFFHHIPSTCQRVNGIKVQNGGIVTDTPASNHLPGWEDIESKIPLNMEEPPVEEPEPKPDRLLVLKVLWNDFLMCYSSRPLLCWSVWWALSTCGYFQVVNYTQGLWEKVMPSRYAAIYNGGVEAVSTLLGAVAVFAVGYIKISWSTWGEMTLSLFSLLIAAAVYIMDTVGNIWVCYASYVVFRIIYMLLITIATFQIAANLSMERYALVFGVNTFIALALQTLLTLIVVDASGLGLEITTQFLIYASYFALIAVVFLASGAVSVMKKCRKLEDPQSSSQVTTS
UniProt Q8NBJ9: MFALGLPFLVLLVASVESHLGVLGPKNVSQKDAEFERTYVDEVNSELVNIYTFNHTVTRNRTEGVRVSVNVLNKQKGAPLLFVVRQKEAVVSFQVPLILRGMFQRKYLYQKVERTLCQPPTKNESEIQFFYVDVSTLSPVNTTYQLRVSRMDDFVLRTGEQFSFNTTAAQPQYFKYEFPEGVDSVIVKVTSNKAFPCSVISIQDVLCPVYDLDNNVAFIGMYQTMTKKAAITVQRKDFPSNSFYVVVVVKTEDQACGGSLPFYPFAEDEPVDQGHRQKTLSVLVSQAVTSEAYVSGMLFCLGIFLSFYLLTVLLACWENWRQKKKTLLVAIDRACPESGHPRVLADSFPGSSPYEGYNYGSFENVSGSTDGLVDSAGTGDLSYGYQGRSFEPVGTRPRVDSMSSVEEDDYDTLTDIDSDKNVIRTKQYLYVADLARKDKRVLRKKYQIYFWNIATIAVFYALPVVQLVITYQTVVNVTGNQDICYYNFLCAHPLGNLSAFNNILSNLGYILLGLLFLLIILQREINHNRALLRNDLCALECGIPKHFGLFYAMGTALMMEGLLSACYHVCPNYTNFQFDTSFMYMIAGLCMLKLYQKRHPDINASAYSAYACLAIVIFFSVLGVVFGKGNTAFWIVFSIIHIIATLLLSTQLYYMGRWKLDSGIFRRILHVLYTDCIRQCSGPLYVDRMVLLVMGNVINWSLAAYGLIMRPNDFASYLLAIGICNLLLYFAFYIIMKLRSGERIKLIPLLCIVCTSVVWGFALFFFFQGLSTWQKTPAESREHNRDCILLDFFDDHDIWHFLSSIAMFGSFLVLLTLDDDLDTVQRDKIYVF

Compound: COc1ccc(Cn2ccc3ccc(C(=O)NO)cc32)cc1
Assay: dose-dependent thermal stabilisation call (2D-TPP, DLPTP, 10% FDR) (binary (1 = stabilised)); higher = stabilised by the compound
Settings: system: HL-60 intact cells; concentration range 0.04-10 µM

**Q.** SERPINC1 (UniProt P01008) was tested. Which “dose-dependent thermal stabilisation call” value did it give?
**A.** Its value is inactive: 0.

**Q.** Which “dose-dependent thermal stabilisation call” value does the source give for SH3GLB1 (UniProt Q9Y371) here?
**A.** The value was inactive: 0.

**Q.** Which “dose-dependent thermal stabilisation call” value does the source give for SDHB (UniProt P21912) here?
**A.** Its value is inactive: 0.

**Q.** With SIL1 (UniProt Q9H173) as the target, how does the “dose-dependent thermal stabilisation call” value read?
**A.** Its value is inactive: 0.

**Q.** How did the “dose-dependent thermal stabilisation call” value turn out when SFRS10 (UniProt P62995) was run?
**A.** Its value is inactive: 0.

**Q.** SGK196 (UniProt Q9H5K3) was tested. Which “dose-dependent thermal stabilisation call” value did it give?
**A.** Its value is inactive: 0.

**Q.** How did the “dose-dependent thermal stabilisation call” value turn out when SDHA (UniProt P31040) was run?
**A.** The value was inactive: 0.

**Q.** How did the “dose-dependent thermal stabilisation call” value turn out when SEC11C (UniProt Q9BY50) was run?
**A.** Its value is inactive: 0.

**Q.** Which “dose-dependent thermal stabilisation call” value does the source give for SLC25A38 (UniProt Q96DW6) here?
**A.** Its value is inactive: 0.

**Q.** For SCARB2 (UniProt Q14108), which “dose-dependent thermal stabilisation call” value is on record?
**A.** The value was inactive: 0.

**Q.** How did the “dose-dependent thermal stabilisation call” value turn out when SF3B1 (UniProt O75533) was run?
**A.** The value was inactive: 0.

**Q.** For SLC17A5 (UniProt Q9NRA2), which “dose-dependent thermal stabilisation call” value is on record?
**A.** Its value is inactive: 0.

**Q.** With SIGIRR (UniProt Q6IA17) as the target, how does the “dose-dependent thermal stabilisation call” value read?
**A.** Its value is inactive: 0.

**Q.** Which “dose-dependent thermal stabilisation call” value does the source give for SLC30A5 (UniProt Q8TAD4) here?
**A.** The value was inactive: 0.

**Q.** For SEC22B (UniProt O75396), which “dose-dependent thermal stabilisation call” value is on record?
**A.** The value was inactive: 0.

**Q.** How did the “dose-dependent thermal stabilisation call” value turn out when SLC25A46 (UniProt Q96AG3) was run?
**A.** The value was inactive: 0.

**Q.** SC5DL (UniProt O75845) was tested. Which “dose-dependent thermal stabilisation call” value did it give?
**A.** Its value is inactive: 0.

**Q.** For SEMA4C (UniProt Q9C0C4), which “dose-dependent thermal stabilisation call” value is on record?
**A.** The value was inactive: 0.

**Q.** Which “dose-dependent thermal stabilisation call” value does the source give for SF3A3 (UniProt Q12874) here?
**A.** Its value is inactive: 0.

**Q.** With SCARB1 (UniProt Q8WTV0) as the target, how does the “dose-dependent thermal stabilisation call” value read?
**A.** Its value is inactive: 0.

**Q.** Which “dose-dependent thermal stabilisation call” value does the source give for SLC12A9 (UniProt Q9BXP2) here?
**A.** Its value is inactive: 0.

**Q.** For SCRN3 (UniProt Q0VDG4), which “dose-dependent thermal stabilisation call” value is on record?
**A.** Its value is inactive: 0.

**Q.** SLC25A19 (UniProt Q9HC21) was tested. Which “dose-dependent thermal stabilisation call” value did it give?
**A.** Its value is inactive: 0.

**Q.** With SLC25A6 (UniProt P12236) as the target, how does the “dose-dependent thermal stabilisation call” value read?
**A.** The value was inactive: 0.

**Q.** With SCFD2 (UniProt Q8WU76) as the target, how does the “dose-dependent thermal stabilisation call” value read?
**A.** The value was inactive: 0.

**Q.** SLC29A1 (UniProt Q99808) was tested. Which “dose-dependent thermal stabilisation call” value did it give?
**A.** The value was inactive: 0.

**Q.** For SFRS9 (UniProt Q13242), which “dose-dependent thermal stabilisation call” value is on record?
**A.** The value was inactive: 0.

**Q.** For SLC25A33 (UniProt Q9BSK2), which “dose-dependent thermal stabilisation call” value is on record?
**A.** The value was inactive: 0.

**Q.** With SLC39A14 (UniProt Q15043) as the target, how does the “dose-dependent thermal stabilisation call” value read?
**A.** The value was inactive: 0.

**Q.** For SCAMP3 (UniProt O14828), which “dose-dependent thermal stabilisation call” value is on record?
**A.** Its value is inactive: 0.

**Q.** With SLC19A2 (UniProt O60779) as the target, how does the “dose-dependent thermal stabilisation call” value read?
**A.** Its value is inactive: 0.

**Q.** SASS6 (UniProt Q6UVJ0) was tested. Which “dose-dependent thermal stabilisation call” value did it give?
**A.** The value was inactive: 0.

**Q.** How did the “dose-dependent thermal stabilisation call” value turn out when SFRS4 (UniProt Q08170) was run?
**A.** Its value is inactive: 0.

**Q.** With SH3BP5L (UniProt Q7L8J4) as the target, how does the “dose-dependent thermal stabilisation call” value read?
**A.** Its value is inactive: 0.

**Q.** For SIDT2 (UniProt Q8NBJ9), which “dose-dependent thermal stabilisation call” value is on record?
**A.** Its value is inactive: 0.

**Q.** For SH3BGRL3 (UniProt Q9H299), which “dose-dependent thermal stabilisation call” value is on record?
**A.** The value was inactive: 0.

**Q.** How did the “dose-dependent thermal stabilisation call” value turn out when SLC25A17 (UniProt O43808) was run?
**A.** The value was inactive: 0.

**Q.** How did the “dose-dependent thermal stabilisation call” value turn out when SCRN2 (UniProt Q96FV2) was run?
**A.** The value was inactive: 0.
